The values below come from publication PMC10876508.

For assay [1], the target named is T1, OsARF17 in pBridge (yeast three-hybrid bait) (rice (Oryza sativa)) (UniProt Q653U3).
T1 sequence: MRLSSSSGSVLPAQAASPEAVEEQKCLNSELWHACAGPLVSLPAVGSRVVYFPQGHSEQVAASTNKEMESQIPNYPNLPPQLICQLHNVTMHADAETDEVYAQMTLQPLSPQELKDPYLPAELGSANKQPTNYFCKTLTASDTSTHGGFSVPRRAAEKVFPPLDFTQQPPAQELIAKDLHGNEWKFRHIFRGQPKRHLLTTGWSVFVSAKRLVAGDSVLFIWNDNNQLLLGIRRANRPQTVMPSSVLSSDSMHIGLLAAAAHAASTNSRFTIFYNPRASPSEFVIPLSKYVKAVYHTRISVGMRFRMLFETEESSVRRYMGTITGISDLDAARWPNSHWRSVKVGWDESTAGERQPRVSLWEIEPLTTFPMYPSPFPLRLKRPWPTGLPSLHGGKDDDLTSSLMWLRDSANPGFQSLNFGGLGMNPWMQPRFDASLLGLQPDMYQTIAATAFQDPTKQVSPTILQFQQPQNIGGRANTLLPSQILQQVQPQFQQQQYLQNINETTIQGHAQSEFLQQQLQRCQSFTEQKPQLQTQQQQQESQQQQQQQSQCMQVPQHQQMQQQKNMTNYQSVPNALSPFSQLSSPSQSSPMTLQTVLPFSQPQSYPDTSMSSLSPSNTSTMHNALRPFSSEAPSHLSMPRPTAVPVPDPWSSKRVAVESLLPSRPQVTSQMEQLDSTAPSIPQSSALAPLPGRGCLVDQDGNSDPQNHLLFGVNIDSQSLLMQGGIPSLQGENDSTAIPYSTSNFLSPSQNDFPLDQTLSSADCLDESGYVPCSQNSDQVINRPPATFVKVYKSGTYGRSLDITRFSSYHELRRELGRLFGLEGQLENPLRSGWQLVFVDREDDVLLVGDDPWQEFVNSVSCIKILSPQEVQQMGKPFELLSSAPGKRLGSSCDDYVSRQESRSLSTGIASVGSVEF
As to the kind of experiment: yeast three-hybrid; pBridge-OsARF17-OsIAA29 with OsIAA21-pGADT7 in yeast Y2H Gold; OsIAA29 co-expressed or not; growth on SD (-Met-His-Leu-Trp).

For assay [2], the target named is T2, His-OsARF17 (rice (Oryza sativa)) (UniProt Q653U3).
T2 sequence: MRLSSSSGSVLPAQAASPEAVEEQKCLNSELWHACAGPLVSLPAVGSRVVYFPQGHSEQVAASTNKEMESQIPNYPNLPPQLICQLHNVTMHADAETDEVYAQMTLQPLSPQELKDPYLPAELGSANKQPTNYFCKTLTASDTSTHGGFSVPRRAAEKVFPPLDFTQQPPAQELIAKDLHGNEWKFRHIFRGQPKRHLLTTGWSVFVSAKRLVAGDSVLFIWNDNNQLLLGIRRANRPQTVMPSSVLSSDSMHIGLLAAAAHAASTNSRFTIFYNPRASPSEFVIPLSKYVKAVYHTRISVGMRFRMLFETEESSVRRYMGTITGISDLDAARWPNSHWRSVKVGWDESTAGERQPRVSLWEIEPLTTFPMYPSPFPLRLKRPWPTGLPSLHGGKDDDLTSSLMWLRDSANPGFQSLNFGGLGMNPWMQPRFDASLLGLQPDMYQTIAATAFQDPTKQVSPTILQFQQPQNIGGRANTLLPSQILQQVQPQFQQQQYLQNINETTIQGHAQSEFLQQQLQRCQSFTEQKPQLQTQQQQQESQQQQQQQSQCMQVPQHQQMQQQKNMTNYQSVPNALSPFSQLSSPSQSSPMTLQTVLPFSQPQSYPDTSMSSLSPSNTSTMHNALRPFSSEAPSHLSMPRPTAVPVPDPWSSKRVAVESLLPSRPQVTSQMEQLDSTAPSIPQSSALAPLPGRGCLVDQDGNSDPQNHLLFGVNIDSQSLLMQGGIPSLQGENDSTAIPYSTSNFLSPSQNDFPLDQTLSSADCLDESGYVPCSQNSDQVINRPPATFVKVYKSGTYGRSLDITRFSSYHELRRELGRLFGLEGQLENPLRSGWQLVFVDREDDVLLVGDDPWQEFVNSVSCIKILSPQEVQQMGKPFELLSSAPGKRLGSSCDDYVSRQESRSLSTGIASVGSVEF
Briefly: pull-down; pull-down/protein competition assay: OsARF17-His and OsIAA29-GST with increasing amounts of OsIAA21-MYC; anti-His blot of the pull-down.

Assay [3] deals with OsIAA29 fused to the DNA binding domain (BD), yeast two-hybrid (rice (Oryza sativa)). Briefly: two-hybrid; OsIAA29 in BD vector (pGBKT7), OsARF17 in AD vector (pGADT7), yeast AH109; growth on QDO (SD/-Leu/-Trp/-His/-Ade) with X-alpha-Gal.
Assay [4] deals with GST-OsIAA29 (rice (Oryza sativa)). Briefly: pull-down; pull-down/protein competition assay: OsARF17-His and OsIAA29-GST with increasing amounts of OsIAA21-MYC; anti-His blot of the pull-down.
Assay [5] has the same target. As to the kind of experiment: pull-down; GST-OsIAA29 on Glutathione beads with His-OsARF17, incubated overnight at 4 °C, beads washed ten times; western blot with anti-GST or anti-His.
The target in assay [6] is OsIAA29-YFP^N (rice (Oryza sativa)). As to the kind of experiment: split reporter; BiFC in rice protoplasts, OsIAA29 in pVYNE and OsARF17 in pVYCE, confocal microscopy.

These are yes or no findings as the source states them, for the method shown. A result given as binding can be weak or reduced; the word gives no strength. For some of these results: Tags and fused reporters may be left off the sequences shown. For some of these results: Binding seen in cells or lysates may run through a third protein.

For “OsIAA21-pGADT7 (yeast three-hybrid prey) (rice (Oryza sativa))”, the binding result in assay [1] is on record as “binds”.

As to OsIAA21-MYC (rice (Oryza sativa)), the binding entry in assay [2] is “binds”.

Take “OsIAA29 co-expressed from pBridge-OsARF17-OsIAA29 (yeast three-hybrid, third protein) (rice (Oryza sativa))”: the binding entry in assay [1] is “binds”.

B1: OsARF17 fused to the activation domain (AD), yeast two-hybrid (protein, UniProt Q653U3 1-917)
chain: MRLSSSSGSVLPAQAASPEAVEEQKCLNSELWHACAGPLVSLPAVGSRVVYFPQGHSEQVAASTNKEMESQIPNYPNLPPQLICQLHNVTMHADAETDEVYAQMTLQPLSPQELKDPYLPAELGSANKQPTNYFCKTLTASDTSTHGGFSVPRRAAEKVFPPLDFTQQPPAQELIAKDLHGNEWKFRHIFRGQPKRHLLTTGWSVFVSAKRLVAGDSVLFIWNDNNQLLLGIRRANRPQTVMPSSVLSSDSMHIGLLAAAAHAASTNSRFTIFYNPRASPSEFVIPLSKYVKAVYHTRISVGMRFRMLFETEESSVRRYMGTITGISDLDAARWPNSHWRSVKVGWDESTAGERQPRVSLWEIEPLTTFPMYPSPFPLRLKRPWPTGLPSLHGGKDDDLTSSLMWLRDSANPGFQSLNFGGLGMNPWMQPRFDASLLGLQPDMYQTIAATAFQDPTKQVSPTILQFQQPQNIGGRANTLLPSQILQQVQPQFQQQQYLQNINETTIQGHAQSEFLQQQLQRCQSFTEQKPQLQTQQQQQESQQQQQQQSQCMQVPQHQQMQQQKNMTNYQSVPNALSPFSQLSSPSQSSPMTLQTVLPFSQPQSYPDTSMSSLSPSNTSTMHNALRPFSSEAPSHLSMPRPTAVPVPDPWSSKRVAVESLLPSRPQVTSQMEQLDSTAPSIPQSSALAPLPGRGCLVDQDGNSDPQNHLLFGVNIDSQSLLMQGGIPSLQGENDSTAIPYSTSNFLSPSQNDFPLDQTLSSADCLDESGYVPCSQNSDQVINRPPATFVKVYKSGTYGRSLDITRFSSYHELRRELGRLFGLEGQLENPLRSGWQLVFVDREDDVLLVGDDPWQEFVNSVSCIKILSPQEVQQMGKPFELLSSAPGKRLGSSCDDYVSRQESRSLSTGIASVGSVEF
B1: the binding entry in assay [3] is listed as “binds”.

B2: His-OsARF17 (protein, UniProt Q653U3 1-917)
chain: MRLSSSSGSVLPAQAASPEAVEEQKCLNSELWHACAGPLVSLPAVGSRVVYFPQGHSEQVAASTNKEMESQIPNYPNLPPQLICQLHNVTMHADAETDEVYAQMTLQPLSPQELKDPYLPAELGSANKQPTNYFCKTLTASDTSTHGGFSVPRRAAEKVFPPLDFTQQPPAQELIAKDLHGNEWKFRHIFRGQPKRHLLTTGWSVFVSAKRLVAGDSVLFIWNDNNQLLLGIRRANRPQTVMPSSVLSSDSMHIGLLAAAAHAASTNSRFTIFYNPRASPSEFVIPLSKYVKAVYHTRISVGMRFRMLFETEESSVRRYMGTITGISDLDAARWPNSHWRSVKVGWDESTAGERQPRVSLWEIEPLTTFPMYPSPFPLRLKRPWPTGLPSLHGGKDDDLTSSLMWLRDSANPGFQSLNFGGLGMNPWMQPRFDASLLGLQPDMYQTIAATAFQDPTKQVSPTILQFQQPQNIGGRANTLLPSQILQQVQPQFQQQQYLQNINETTIQGHAQSEFLQQQLQRCQSFTEQKPQLQTQQQQQESQQQQQQQSQCMQVPQHQQMQQQKNMTNYQSVPNALSPFSQLSSPSQSSPMTLQTVLPFSQPQSYPDTSMSSLSPSNTSTMHNALRPFSSEAPSHLSMPRPTAVPVPDPWSSKRVAVESLLPSRPQVTSQMEQLDSTAPSIPQSSALAPLPGRGCLVDQDGNSDPQNHLLFGVNIDSQSLLMQGGIPSLQGENDSTAIPYSTSNFLSPSQNDFPLDQTLSSADCLDESGYVPCSQNSDQVINRPPATFVKVYKSGTYGRSLDITRFSSYHELRRELGRLFGLEGQLENPLRSGWQLVFVDREDDVLLVGDDPWQEFVNSVSCIKILSPQEVQQMGKPFELLSSAPGKRLGSSCDDYVSRQESRSLSTGIASVGSVEF
Consider B2, for which the binding result in assay [4] and in assay [5] was “binds” throughout.

B3: OsARF17-YFP^C (protein, UniProt Q653U3 1-917)
chain: MRLSSSSGSVLPAQAASPEAVEEQKCLNSELWHACAGPLVSLPAVGSRVVYFPQGHSEQVAASTNKEMESQIPNYPNLPPQLICQLHNVTMHADAETDEVYAQMTLQPLSPQELKDPYLPAELGSANKQPTNYFCKTLTASDTSTHGGFSVPRRAAEKVFPPLDFTQQPPAQELIAKDLHGNEWKFRHIFRGQPKRHLLTTGWSVFVSAKRLVAGDSVLFIWNDNNQLLLGIRRANRPQTVMPSSVLSSDSMHIGLLAAAAHAASTNSRFTIFYNPRASPSEFVIPLSKYVKAVYHTRISVGMRFRMLFETEESSVRRYMGTITGISDLDAARWPNSHWRSVKVGWDESTAGERQPRVSLWEIEPLTTFPMYPSPFPLRLKRPWPTGLPSLHGGKDDDLTSSLMWLRDSANPGFQSLNFGGLGMNPWMQPRFDASLLGLQPDMYQTIAATAFQDPTKQVSPTILQFQQPQNIGGRANTLLPSQILQQVQPQFQQQQYLQNINETTIQGHAQSEFLQQQLQRCQSFTEQKPQLQTQQQQQESQQQQQQQSQCMQVPQHQQMQQQKNMTNYQSVPNALSPFSQLSSPSQSSPMTLQTVLPFSQPQSYPDTSMSSLSPSNTSTMHNALRPFSSEAPSHLSMPRPTAVPVPDPWSSKRVAVESLLPSRPQVTSQMEQLDSTAPSIPQSSALAPLPGRGCLVDQDGNSDPQNHLLFGVNIDSQSLLMQGGIPSLQGENDSTAIPYSTSNFLSPSQNDFPLDQTLSSADCLDESGYVPCSQNSDQVINRPPATFVKVYKSGTYGRSLDITRFSSYHELRRELGRLFGLEGQLENPLRSGWQLVFVDREDDVLLVGDDPWQEFVNSVSCIKILSPQEVQQMGKPFELLSSAPGKRLGSSCDDYVSRQESRSLSTGIASVGSVEF
Take B3: the binding entry in assay [6] is given as “binds”.
